# Assay results as given in the supplement of paper PMC10849652.
# Chains of the proteins cited; added tags and fusions are not shown. Lines headed by an entry give the natural chain unless they say otherwise; changes in a name come on top.
# UniProt Q15629: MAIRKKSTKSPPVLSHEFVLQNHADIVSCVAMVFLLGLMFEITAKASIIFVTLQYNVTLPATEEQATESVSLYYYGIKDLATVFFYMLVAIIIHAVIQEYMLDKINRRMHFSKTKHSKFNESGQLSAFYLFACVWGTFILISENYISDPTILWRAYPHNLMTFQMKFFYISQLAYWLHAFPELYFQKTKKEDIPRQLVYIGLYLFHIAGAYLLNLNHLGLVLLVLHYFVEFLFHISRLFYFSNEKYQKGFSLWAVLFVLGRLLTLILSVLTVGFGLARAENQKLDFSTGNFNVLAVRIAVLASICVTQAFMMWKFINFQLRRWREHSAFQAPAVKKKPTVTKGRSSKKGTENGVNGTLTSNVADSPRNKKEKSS
# UniProt Q15642: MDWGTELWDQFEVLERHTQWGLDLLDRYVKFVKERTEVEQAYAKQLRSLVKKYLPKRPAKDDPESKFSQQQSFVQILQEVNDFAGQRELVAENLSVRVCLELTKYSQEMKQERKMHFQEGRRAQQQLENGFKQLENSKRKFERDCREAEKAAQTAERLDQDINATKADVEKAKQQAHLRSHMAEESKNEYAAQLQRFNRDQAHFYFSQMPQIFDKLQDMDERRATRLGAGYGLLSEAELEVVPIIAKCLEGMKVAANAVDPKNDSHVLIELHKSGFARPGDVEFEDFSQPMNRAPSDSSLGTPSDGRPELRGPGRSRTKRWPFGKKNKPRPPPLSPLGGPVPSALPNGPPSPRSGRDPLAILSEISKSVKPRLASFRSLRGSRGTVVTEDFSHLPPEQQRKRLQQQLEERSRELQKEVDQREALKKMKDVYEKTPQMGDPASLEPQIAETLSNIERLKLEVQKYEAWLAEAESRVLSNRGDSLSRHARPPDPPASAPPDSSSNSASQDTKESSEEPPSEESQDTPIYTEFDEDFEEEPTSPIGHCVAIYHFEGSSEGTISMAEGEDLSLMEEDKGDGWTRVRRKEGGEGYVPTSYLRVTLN
# UniProt Q96FX7: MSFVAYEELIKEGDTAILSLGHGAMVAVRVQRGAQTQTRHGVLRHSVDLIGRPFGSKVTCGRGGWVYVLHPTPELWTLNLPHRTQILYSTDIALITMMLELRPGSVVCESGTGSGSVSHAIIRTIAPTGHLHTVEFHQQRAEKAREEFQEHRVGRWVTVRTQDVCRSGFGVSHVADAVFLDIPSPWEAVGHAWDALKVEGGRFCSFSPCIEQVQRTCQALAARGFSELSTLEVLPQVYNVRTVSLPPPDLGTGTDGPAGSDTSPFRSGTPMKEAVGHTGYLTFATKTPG
# UniProt Q9UL33, whole entry, looked up: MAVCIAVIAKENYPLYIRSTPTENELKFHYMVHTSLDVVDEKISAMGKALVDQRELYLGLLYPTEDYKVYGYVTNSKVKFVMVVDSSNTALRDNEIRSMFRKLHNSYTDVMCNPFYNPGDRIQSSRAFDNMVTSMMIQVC
# UniProt Q9H892: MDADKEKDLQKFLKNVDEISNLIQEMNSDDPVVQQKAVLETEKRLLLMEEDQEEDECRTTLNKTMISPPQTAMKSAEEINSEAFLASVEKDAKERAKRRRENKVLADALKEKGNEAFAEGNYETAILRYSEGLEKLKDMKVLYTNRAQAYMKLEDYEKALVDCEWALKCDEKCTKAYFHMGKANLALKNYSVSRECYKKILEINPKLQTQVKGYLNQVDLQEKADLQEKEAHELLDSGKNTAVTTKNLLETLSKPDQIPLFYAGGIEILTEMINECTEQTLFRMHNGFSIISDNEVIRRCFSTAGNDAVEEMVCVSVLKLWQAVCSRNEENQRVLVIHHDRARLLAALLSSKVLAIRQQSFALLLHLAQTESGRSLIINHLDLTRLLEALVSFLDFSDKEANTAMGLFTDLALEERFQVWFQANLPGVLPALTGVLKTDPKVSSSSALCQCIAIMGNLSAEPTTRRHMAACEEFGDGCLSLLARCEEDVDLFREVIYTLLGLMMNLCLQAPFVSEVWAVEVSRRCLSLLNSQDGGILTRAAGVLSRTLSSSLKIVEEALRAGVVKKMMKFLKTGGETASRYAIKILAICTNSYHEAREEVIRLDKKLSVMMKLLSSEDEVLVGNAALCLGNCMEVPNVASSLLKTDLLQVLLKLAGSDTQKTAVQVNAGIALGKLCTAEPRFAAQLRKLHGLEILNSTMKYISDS
# UniProt Q8N0Z6: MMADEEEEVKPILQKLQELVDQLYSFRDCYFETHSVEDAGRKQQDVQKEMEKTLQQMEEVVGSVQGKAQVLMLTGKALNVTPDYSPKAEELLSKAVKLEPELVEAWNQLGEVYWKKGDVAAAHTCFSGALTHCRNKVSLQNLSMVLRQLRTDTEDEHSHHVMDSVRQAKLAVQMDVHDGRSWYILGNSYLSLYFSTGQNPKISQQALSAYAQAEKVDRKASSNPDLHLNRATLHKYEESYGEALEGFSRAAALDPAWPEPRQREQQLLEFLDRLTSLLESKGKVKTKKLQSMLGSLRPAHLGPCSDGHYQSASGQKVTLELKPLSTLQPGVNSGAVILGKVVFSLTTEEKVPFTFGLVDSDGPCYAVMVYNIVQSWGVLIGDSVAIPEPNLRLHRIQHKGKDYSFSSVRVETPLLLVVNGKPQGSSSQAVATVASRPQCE
# UniProt Q13049: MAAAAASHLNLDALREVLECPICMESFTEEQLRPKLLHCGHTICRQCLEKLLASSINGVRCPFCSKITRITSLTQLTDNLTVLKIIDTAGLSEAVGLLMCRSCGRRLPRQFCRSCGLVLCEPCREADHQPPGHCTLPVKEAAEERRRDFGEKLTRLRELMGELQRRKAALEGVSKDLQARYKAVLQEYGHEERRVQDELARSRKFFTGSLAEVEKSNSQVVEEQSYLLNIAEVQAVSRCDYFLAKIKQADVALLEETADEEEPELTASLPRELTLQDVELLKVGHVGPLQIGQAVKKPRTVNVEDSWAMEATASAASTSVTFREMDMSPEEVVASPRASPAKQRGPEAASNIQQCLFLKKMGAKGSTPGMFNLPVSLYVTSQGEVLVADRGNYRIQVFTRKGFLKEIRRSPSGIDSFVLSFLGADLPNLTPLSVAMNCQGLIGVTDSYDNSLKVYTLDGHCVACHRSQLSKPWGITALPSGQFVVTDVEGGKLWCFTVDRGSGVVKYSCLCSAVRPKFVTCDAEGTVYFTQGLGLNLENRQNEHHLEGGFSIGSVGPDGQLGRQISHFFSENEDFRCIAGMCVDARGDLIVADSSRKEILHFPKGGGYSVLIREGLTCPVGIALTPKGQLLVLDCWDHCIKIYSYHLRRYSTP
# UniProt Q96Q11: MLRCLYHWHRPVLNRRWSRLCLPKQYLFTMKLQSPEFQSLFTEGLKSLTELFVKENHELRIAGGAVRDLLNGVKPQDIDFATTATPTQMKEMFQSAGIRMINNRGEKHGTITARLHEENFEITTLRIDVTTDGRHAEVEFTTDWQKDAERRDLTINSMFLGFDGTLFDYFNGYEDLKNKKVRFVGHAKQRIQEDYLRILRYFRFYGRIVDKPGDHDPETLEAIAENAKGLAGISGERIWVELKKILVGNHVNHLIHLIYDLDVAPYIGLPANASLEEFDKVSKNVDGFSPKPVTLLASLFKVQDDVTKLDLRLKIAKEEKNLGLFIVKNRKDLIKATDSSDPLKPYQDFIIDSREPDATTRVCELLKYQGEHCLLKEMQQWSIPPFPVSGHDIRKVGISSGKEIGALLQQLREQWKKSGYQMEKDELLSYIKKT
# UniProt Q9C035: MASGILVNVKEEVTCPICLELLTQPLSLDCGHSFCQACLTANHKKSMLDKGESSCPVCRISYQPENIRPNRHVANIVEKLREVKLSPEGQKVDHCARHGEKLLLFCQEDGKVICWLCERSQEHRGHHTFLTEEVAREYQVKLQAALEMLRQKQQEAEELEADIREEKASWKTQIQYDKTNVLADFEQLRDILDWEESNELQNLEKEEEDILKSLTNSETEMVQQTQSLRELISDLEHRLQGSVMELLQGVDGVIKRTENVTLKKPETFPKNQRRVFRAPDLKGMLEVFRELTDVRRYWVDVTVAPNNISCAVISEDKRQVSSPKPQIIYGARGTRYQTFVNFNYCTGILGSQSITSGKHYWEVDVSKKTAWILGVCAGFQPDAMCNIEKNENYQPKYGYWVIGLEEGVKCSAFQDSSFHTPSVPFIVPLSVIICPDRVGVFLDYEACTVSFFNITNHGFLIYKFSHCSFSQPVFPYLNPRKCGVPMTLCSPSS
# UniProt O95857: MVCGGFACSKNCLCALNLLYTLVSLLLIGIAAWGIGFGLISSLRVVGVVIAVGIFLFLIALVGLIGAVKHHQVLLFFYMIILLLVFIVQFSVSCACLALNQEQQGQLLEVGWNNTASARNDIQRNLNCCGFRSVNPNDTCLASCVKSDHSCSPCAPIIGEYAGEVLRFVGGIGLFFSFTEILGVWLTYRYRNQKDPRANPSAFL
# UniProt Q8TEL6: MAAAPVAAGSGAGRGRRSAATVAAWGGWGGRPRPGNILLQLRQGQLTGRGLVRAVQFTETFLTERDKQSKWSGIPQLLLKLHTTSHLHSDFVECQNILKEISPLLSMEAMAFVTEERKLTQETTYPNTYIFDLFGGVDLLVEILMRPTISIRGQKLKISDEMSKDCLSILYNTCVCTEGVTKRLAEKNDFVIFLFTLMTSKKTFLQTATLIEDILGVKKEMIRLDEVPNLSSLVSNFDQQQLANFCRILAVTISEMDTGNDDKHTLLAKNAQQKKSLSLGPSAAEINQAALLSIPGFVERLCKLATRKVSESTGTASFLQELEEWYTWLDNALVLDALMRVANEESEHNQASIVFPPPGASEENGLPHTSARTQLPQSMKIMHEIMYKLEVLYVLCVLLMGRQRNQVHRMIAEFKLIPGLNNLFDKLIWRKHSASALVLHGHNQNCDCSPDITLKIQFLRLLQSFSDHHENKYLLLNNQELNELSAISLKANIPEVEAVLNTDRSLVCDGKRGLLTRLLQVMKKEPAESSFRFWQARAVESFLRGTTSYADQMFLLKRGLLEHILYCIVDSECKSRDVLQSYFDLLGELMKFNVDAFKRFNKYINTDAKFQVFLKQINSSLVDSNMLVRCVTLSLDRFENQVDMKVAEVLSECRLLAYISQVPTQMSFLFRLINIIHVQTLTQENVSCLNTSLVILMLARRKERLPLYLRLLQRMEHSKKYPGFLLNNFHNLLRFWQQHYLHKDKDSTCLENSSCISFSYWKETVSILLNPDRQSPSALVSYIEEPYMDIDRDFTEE
# UniProt Q96F44: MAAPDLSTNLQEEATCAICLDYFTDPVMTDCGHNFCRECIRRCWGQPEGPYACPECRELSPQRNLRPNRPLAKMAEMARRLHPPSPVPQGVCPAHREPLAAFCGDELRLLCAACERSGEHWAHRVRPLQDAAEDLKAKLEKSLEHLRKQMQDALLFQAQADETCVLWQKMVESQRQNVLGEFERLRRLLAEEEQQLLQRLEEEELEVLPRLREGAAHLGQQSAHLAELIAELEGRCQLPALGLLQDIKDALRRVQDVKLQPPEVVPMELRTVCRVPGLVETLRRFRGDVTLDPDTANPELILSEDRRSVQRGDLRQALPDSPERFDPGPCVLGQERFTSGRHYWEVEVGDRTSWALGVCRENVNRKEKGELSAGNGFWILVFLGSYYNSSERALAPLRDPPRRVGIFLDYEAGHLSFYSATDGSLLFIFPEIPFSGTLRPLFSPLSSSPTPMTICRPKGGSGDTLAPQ
# UniProt A5PLN9: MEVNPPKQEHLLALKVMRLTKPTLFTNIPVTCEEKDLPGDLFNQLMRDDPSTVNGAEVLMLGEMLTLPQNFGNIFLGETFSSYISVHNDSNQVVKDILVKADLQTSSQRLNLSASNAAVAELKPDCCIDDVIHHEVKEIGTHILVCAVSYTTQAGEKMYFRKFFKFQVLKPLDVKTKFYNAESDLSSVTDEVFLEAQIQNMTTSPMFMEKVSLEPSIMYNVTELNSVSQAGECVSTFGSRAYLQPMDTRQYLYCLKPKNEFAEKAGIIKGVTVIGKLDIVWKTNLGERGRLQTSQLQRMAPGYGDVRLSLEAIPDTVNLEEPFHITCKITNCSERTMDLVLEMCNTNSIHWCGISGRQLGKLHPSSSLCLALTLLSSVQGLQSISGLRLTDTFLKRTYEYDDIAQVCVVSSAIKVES
# UniProt Q32P41: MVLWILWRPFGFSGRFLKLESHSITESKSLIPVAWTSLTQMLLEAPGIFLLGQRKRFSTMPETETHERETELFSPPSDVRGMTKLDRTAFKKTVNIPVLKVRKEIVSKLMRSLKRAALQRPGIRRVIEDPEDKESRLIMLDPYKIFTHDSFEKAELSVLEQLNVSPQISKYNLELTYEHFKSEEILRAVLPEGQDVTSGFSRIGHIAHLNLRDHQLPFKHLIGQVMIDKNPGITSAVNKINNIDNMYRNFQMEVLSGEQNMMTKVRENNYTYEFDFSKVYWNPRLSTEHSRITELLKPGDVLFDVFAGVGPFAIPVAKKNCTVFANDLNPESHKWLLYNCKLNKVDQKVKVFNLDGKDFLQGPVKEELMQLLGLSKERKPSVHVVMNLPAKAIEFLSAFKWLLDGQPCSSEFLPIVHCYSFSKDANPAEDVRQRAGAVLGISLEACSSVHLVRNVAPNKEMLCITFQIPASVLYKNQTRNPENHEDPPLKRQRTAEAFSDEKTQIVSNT
# This is one part of the list.
# Compound: CCn1cc(-c2ccnc3[nH]c(-c4cccc(CN(C)C)c4)cc23)c(-c2ccc(NC(=O)N(C)C)cc2)n1
# Assay: log2 fold change, soluble protein after heating vs DMSO (PISA); higher = thermal stabilisation; K562 lysate, 10 uM; active = over 0.2 and 3.5 SD of the protein, either way, in both replicates (recomputed)
# In short: (§1)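 Thermal stability, expressed as log-two fold change relative to solvent controls, is given from duplicates. Crude K562 extract in PBS pH 7.4 with 1 mM MgCl2, at 1 mg/mL protein, was treated with 10 μM compound for 30 min and heated in aliquots for 3 min across 48°C-58°C. After pooling, adjustment to 0.5% NP-40 at 4°C and centrifugation at 21,000xg for 90 min, supernatant protein was measured by TMTpro 16plex LC-MS/MS with channel sums equalised.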
row,Target,log2 fold change
1,TRRAP (UniProt Q9Y4A5),inactive: -0.035
2,TSEN54 (UniProt Q7Z6J9),inactive: -0.023
3,TRAPPC2 isoform 3 (UniProt P0DI81),inactive: -0.014
4,TSC2 isoform 4 (UniProt P49815),inactive: 0.07
5,TRAPPC6A isoform 2 (UniProt O75865),inactive: -0.228
6,TRMT11 (UniProt Q7Z4G4),inactive: 0.134
7,TTC4 (UniProt O95801),inactive: -0.089
8,TRAM1 (UniProt Q15629),inactive: -0.059
9,TRIP10 isoform 2 (UniProt Q15642),inactive: -0.067
10,TRMT61A (UniProt Q96FX7),inactive: 0.006
11,TRAPPC2L (UniProt Q9UL33),inactive: -0.067
12,TTC12 isoform 2 (UniProt Q9H892),inactive: -0.208
13,TSPO (UniProt P30536),inactive: -0.223
14,TTC5 (UniProt Q8N0Z6),inactive: -0.111
15,TRIM32 (UniProt Q13049),inactive: -0.035
16,TRAPPC11 (UniProt Q7Z392),inactive: -0.086
17,TSC1 (UniProt Q92574),inactive: 0.112

row,Target,log2 fold change
1,TRIM33 isoform 2 (UniProt Q9UPN9),inactive: -0.132
2,TRNT1 (UniProt Q96Q11),inactive: -0.037
3,TRMT61B (UniProt Q9BVS5),inactive: -0.038
4,TRIM5 (UniProt Q9C035),inactive: -0.017
5,TSPAN13 (UniProt O95857),inactive: 0.114
6,TRIM25 (UniProt Q14258),inactive: 0.029
7,TRPC4AP (UniProt Q8TEL6),inactive: -0.046
8,TSC22D2 (UniProt O75157),inactive: -0.064
9,TRIM11 (UniProt Q96F44),inactive: 0.024
10,TSNAX (UniProt Q99598),inactive: -0.023
11,TRAPPC13 isoform 4 (UniProt A5PLN9),inactive: -0.056
12,TRIP13 (UniProt Q15645),inactive: 0.003
13,TSR2 (UniProt Q969E8),inactive: -0.045
14,TRMT5 (UniProt Q32P41),inactive: -0.03
15,TTC9C (UniProt Q8N5M4),inactive: -0.266
16,TRAF6 (UniProt Q9Y4K3),inactive: 0.117

# Compound: CN1CCC(CNc2ccc3ncc(-c4cccc(OC(F)(F)F)c4)n3n2)CC1
# Assay: as above
# In short: as §1
row,Target,log2 fold change
1,TRRAP (UniProt Q9Y4A5),inactive: 0.016
2,TSEN54 (UniProt Q7Z6J9),inactive: 0.023
3,TRAPPC2 isoform 3 (UniProt P0DI81),inactive: -0.01
4,TSC2 isoform 4 (UniProt P49815),inactive: -0.012
5,TRAPPC6A isoform 2 (UniProt O75865),inactive: -0.096
6,TRMT11 (UniProt Q7Z4G4),inactive: 0.028
7,TTC4 (UniProt O95801),inactive: -0.027
8,TRAM1 (UniProt Q15629),inactive: -0.13
9,TRIP10 isoform 2 (UniProt Q15642),inactive: 0.072
10,TRMT61A (UniProt Q96FX7),inactive: 0.034
11,TRAPPC2L (UniProt Q9UL33),inactive: -0.005
12,TTC12 isoform 2 (UniProt Q9H892),inactive: 0.079
13,TSPO (UniProt P30536),inactive: 0.054
14,TTC5 (UniProt Q8N0Z6),inactive: 0.054
15,TRIM32 (UniProt Q13049),inactive: -0.008
16,TRAPPC11 (UniProt Q7Z392),inactive: 0.016
17,TSC1 (UniProt Q92574),inactive: 0.087

row,Target,log2 fold change
1,TRIM33 isoform 2 (UniProt Q9UPN9),inactive: 0.05
2,TRNT1 (UniProt Q96Q11),inactive: -0.053
3,TRMT61B (UniProt Q9BVS5),inactive: 0.099
4,TRIM5 (UniProt Q9C035),inactive: -0.023
5,TSPAN13 (UniProt O95857),inactive: 0.059
6,TRIM25 (UniProt Q14258),inactive: -0.035
7,TRPC4AP (UniProt Q8TEL6),inactive: -0.031
8,TSC22D2 (UniProt O75157),inactive: 0.021
9,TRIM11 (UniProt Q96F44),inactive: 0.009
10,TSNAX (UniProt Q99598),inactive: 0.037
11,TRAPPC13 isoform 4 (UniProt A5PLN9),inactive: 0.04
12,TRIP13 (UniProt Q15645),inactive: -0.019
13,TSR2 (UniProt Q969E8),inactive: 0.016
14,TRMT5 (UniProt Q32P41),inactive: -0.043
15,TTC9C (UniProt Q8N5M4),inactive: 0.051
16,TRAF6 (UniProt Q9Y4K3),inactive: -0.045

# Compound: CN1CCN(CCOc2cc(OC3CCOCC3)c3c(Nc4c(Cl)ccc5c4OCO5)ncnc3c2)CC1 [saracatinib]
# Assay: as above
# In short: as §1
row,Target,log2 fold change
1,TRRAP (UniProt Q9Y4A5),inactive: 0.025
2,TSEN54 (UniProt Q7Z6J9),inactive: -0.007
3,TRAPPC2 isoform 3 (UniProt P0DI81),inactive: -0.035
4,TSC2 isoform 4 (UniProt P49815),inactive: 0.061
5,TRAPPC6A isoform 2 (UniProt O75865),inactive: 0.001
6,TRMT11 (UniProt Q7Z4G4),inactive: -0.004
7,TTC4 (UniProt O95801),inactive: 0.033
8,TRAM1 (UniProt Q15629),inactive: 0.001
9,TRIP10 isoform 2 (UniProt Q15642),inactive: -0.059
10,TRMT61A (UniProt Q96FX7),inactive: -0.028
11,TRAPPC2L (UniProt Q9UL33),inactive: -0.034
12,TTC12 isoform 2 (UniProt Q9H892),inactive: 0.038
13,TSPO (UniProt P30536),inactive: 0.07
14,TTC5 (UniProt Q8N0Z6),inactive: 0.005
15,TRIM32 (UniProt Q13049),inactive: -0.026
16,TRAPPC11 (UniProt Q7Z392),inactive: 0.009
17,TSC1 (UniProt Q92574),inactive: -0.046

row,Target,log2 fold change
1,TRIM33 isoform 2 (UniProt Q9UPN9),inactive: 0.027
2,TRNT1 (UniProt Q96Q11),inactive: -0.004
3,TRMT61B (UniProt Q9BVS5),inactive: -0.035
4,TRIM5 (UniProt Q9C035),inactive: 0.006
5,TSPAN13 (UniProt O95857),inactive: 0.134
6,TRIM25 (UniProt Q14258),inactive: -0.002
7,TRPC4AP (UniProt Q8TEL6),inactive: 0.032
8,TSC22D2 (UniProt O75157),inactive: 0.151
9,TRIM11 (UniProt Q96F44),inactive: 0.024
10,TSNAX (UniProt Q99598),inactive: 0.027
11,TRAPPC13 isoform 4 (UniProt A5PLN9),inactive: 0.01
12,TRIP13 (UniProt Q15645),inactive: 0.008
13,TSR2 (UniProt Q969E8),inactive: 0.012
14,TRMT5 (UniProt Q32P41),inactive: 0.026
15,TTC9C (UniProt Q8N5M4),inactive: -0.022
16,TRAF6 (UniProt Q9Y4K3),inactive: -0.013
